At least one peptide structure holds a part that was inferred or is arguable (an end, a ring closure or a residue). Ends that are not written are not given here.
Key:
HUVECs = assay: Cellular proliferation test (MTT) on HUVECs; format: cell-based, human; details: 264 μM, 48 h, n=3
Method: Evaluation of cellular proliferation was performed using 4,5-diMethylThiazol-2-yl)-2,5 diphenylTetrazolium bromide (MTT) test. After 18 hrs of culture, the media was changed by EBM2 supplemented with gentamycine and 5% SVF. Different concentrations of peptides were added under a volume of 10 μL/well. Cells were incubated for 48 hrs at 37° C. MTT was added (50 μL/well) to the cells for 3 hrs.
Cells were grown for 48 h in EGM2-MV and proliferation was quantified by MTT assay.

CD81 = target: T1, CD81 (Homo sapiens, UniProt P60033); assay: CD81 level in HUVECs (Western blot, FACS); format: cell-based; details: P3 33 μM; up to 5 h incubation
T1 construct: endogenous in cells; host or cells: HUVEC
T1 sequence (P60033 1-236): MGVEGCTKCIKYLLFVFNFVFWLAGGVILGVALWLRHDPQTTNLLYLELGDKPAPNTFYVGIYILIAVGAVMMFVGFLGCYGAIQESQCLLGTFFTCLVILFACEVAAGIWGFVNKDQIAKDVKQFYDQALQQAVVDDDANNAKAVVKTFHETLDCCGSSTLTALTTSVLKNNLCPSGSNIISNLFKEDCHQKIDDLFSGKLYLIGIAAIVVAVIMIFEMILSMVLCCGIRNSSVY

CD9-CD9P-1 complex = target: T2, CD9-CD9P-1 complex (Homo sapiens, UniProt P21926+Q9P2B2); assay: Immunoprecipitation in HUVECs: CD9P-1 with CD9; format: cell-based; details: 33 μM; 2 hrs
T2 construct: endogenous in cells; host or cells: HUVEC
T2 sequence (Q9P2B2 26-879): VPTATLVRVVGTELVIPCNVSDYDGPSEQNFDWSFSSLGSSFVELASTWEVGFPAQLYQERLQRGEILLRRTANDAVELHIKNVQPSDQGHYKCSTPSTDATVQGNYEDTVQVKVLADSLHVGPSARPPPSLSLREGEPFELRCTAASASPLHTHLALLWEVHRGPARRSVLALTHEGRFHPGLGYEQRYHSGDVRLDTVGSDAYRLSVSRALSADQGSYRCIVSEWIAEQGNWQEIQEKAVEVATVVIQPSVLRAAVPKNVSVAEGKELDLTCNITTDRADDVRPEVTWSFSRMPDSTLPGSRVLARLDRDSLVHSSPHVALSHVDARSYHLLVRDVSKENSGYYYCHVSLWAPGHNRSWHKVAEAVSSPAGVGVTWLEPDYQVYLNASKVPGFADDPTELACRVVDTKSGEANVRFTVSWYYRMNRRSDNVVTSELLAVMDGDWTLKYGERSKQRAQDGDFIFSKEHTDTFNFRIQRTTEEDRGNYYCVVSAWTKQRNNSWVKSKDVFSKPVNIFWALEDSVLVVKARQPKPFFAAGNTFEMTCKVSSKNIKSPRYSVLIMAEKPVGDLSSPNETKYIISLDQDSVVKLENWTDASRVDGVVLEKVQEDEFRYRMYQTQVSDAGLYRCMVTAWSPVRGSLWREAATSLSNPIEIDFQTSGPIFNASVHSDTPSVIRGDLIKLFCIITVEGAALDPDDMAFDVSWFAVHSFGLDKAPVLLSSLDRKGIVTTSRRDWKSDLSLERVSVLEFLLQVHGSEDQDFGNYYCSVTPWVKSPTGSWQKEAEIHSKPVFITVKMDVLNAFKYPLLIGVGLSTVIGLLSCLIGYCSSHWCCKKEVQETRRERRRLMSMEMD
T2 sequence (P21926 2-228 limits assumed): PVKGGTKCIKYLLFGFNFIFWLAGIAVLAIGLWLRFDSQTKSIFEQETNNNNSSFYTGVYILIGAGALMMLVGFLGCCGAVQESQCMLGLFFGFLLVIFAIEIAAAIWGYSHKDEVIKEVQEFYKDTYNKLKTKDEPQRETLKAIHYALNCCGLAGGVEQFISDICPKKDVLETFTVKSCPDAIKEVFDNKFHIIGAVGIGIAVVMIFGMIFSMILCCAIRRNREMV
Method: (§1) FIG. 13 is a photograph representing the dissociation of CD9-CD9P-1, CD9P-1-CD151 and CD9-CD151 complexes by P3 in HUVECs. HUVECs incubated for 2 h with 33 μM P3, PCT or solvent in EGM2-MV medium were lysed in brij 97 buffer, then CD81, CD9 or CD151 were immunoprecipitated with the corresponding antibody. Line A: Western blot results obtained with anti-CD9P-1 antibody from immunoprecipitated CD81, CD9 and CD151. Line B: Western blot results obtained with anti-CD9 antibody from immunoprecipitated CD81, CD9 and CD151. Line C: Western blot results obtained with anti-CD151 antibody from immunoprecipitated CD81, CD9 and CD151. PCT: control peptide. IP: immunoprecipitation.
(§2) To study more precisely the effect of P3 on the associations of tetraspanins CD9, CD81, and CD151 between them and with CD9P-1, immunoprecipitation (IP) experiments were performed. In the control experiment (with the solvent), CD9P-1 co-precipitated with CD9 and CD81. A weak co-precipitation was observed between […] and CD151. The associations between tetraspanins and CD9P-1 are not modified under PCT condition. However, the interactions between CD9P-1 and CD9 and between CD9P-1 and CD151 are decreased while the HUVECs are incubated for 2 hrs with 33 μM of P3. The association between CD9P-1 and CD81 is not modified by P3 (FIG. 13A).

CD9P-1-CD151 complex = target: T3, CD9P-1-CD151 complex (Homo sapiens, UniProt P48509+Q9P2B2); assay: Immunoprecipitation in HUVECs: CD9P-1 with CD151; format: cell-based; details: 33 μM; 2 hrs
T3 construct: endogenous in cells; host or cells: HUVEC
T3 sequence (Q9P2B2 26-879): T2 sequence (Q9P2B2 26-879)
T3 sequence (P48509 1-253): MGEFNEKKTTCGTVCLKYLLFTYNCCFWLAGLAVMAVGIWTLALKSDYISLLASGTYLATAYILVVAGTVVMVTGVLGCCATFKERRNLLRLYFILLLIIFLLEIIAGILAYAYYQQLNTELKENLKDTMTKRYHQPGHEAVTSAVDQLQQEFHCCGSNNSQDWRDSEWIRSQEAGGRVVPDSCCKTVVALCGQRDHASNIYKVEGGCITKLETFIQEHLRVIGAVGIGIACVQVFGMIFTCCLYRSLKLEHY
Method: as §1, §2

CD9-CD151 complex = target: T4, CD9-CD151 complex (Homo sapiens, UniProt P21926+P48509); assay: Immunoprecipitation in HUVECs: CD9 with CD151; format: cell-based; details: 33 μM; 2 h
T4 construct: endogenous in cells; host or cells: HUVEC
T4 sequence (P21926 2-228 limits assumed): T2 sequence (P21926 2-228 limits assumed)
T4 sequence (P48509 1-253): T3 sequence (P48509 1-253)

CD9P-1 = target: T5, CD9P-1 (Homo sapiens, UniProt Q9P2B2); assay: CD9P-1 in lysates of NCI-H460 xenografts (Western blot); format: in vivo, mice; parameters: from tissue; host or cells: homogenates of Matrigel implants with NCI-H460 cells, and NCI-H460 xenografts, from Swiss nu/nu mice; details: 10 mg/kg every other day for 13 days
T5 sequence (Q9P2B2 26-879): T2 sequence (Q9P2B2 26-879)
Method: In lysates from xenografts NCI-H460 cells from mice treated for 13 days every other day by P3 or P4 (10 mg/kg), a decrease of CD151 level is observed respectively of 73% and 50% compared to mice treated with the solvent (FIGS. 12A and B). No change in CD9P-1 was observed (FIG. 12A).

## GNYYCSVTPWVKS [P3]
HUVECs
  HUVECs proliferation (percentage of solvent control): 27.3%±0.3%
CD81
  CD81 expression (Western blot): neither CD9 expression (FIG. 10B), CD81 (FIG. 10C), and CD9P-1 (FIG. 10D) nor integrin β1 are affected
CD9-CD9P-1 complex
  interaction between CD9P-1 and CD9: decreased
CD9P-1-CD151 complex
  interaction between CD9P-1 and CD151: decreased
CD9-CD151 complex
  association between CD9 and CD151 (anti-CD9 blot, FIG. 13B): decrease in the association between CD9 and CD151
  complex CD151-CD9 (anti-CD151 blot, FIG. 13C): dissociation of the complex CD151-CD9
CD9P-1
  change in CD9P-1: No change

Reference: US20170173106A1, “Polypeptide Fragments of 168A-T2 and Compositions Comprising Them for Use in Treating Cancer” (GENE SIGNAL INTERNATIONAL SA, priority 2014, published 2017)
